Measured values from the supplement of paper PMC10849652.
The list shows a part of the results. Residues, ends and D or L forms follow the SMILES beside them. *: point of attachment. Cbz = O=C(OCc1ccccc1)*

Chains of the proteins cited; added tags and fusions are not shown. Lines headed by an entry give the natural chain unless they say otherwise; changes in a name come on top.
UniProt O75131: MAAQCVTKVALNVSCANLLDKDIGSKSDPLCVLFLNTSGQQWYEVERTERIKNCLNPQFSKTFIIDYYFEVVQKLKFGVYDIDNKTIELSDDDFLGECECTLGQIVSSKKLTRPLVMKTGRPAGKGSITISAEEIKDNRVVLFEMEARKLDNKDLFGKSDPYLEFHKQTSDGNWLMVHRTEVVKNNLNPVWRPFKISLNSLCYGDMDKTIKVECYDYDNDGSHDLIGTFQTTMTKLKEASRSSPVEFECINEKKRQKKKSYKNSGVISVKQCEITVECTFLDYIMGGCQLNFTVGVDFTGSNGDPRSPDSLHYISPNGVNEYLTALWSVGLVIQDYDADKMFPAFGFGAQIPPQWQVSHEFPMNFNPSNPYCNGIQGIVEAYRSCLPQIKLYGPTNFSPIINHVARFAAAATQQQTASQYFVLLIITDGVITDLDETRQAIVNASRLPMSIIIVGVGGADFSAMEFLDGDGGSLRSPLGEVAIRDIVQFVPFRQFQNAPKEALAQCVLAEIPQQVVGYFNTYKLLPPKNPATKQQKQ
UniProt Q9Y678: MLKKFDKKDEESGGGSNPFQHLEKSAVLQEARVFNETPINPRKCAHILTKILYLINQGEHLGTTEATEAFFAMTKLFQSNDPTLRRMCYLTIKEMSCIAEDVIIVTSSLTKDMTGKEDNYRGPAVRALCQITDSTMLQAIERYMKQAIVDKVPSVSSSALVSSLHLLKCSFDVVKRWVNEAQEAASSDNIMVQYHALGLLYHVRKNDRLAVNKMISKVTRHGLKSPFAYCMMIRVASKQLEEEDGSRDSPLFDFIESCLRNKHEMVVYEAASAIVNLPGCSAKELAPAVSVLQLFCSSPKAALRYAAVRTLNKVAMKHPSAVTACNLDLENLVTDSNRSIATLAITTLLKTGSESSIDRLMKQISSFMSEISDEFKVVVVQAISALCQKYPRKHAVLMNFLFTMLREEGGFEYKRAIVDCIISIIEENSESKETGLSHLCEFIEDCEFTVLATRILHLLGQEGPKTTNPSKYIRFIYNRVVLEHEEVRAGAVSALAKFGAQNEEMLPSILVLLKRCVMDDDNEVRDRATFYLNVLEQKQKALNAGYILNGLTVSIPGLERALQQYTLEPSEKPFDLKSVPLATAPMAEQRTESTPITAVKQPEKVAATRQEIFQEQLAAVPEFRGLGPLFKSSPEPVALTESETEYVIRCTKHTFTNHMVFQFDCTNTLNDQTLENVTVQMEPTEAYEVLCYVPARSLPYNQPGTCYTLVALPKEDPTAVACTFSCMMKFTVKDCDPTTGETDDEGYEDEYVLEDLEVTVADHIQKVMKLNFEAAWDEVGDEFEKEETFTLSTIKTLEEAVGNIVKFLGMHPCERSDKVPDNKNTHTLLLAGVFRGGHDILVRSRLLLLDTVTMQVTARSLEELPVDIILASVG
UniProt Q08257: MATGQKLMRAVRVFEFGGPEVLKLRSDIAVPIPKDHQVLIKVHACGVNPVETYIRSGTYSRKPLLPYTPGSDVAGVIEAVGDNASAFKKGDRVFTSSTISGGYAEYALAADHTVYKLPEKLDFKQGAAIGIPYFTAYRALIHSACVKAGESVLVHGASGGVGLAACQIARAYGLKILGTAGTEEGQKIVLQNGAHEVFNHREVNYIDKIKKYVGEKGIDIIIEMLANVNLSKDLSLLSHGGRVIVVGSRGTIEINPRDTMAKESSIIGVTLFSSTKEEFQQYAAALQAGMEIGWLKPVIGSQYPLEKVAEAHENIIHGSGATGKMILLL
UniProt Q5RI15: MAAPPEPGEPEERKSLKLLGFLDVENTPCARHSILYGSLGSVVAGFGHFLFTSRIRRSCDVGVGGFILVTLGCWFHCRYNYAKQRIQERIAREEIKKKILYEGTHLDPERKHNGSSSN
UniProt Q8N684: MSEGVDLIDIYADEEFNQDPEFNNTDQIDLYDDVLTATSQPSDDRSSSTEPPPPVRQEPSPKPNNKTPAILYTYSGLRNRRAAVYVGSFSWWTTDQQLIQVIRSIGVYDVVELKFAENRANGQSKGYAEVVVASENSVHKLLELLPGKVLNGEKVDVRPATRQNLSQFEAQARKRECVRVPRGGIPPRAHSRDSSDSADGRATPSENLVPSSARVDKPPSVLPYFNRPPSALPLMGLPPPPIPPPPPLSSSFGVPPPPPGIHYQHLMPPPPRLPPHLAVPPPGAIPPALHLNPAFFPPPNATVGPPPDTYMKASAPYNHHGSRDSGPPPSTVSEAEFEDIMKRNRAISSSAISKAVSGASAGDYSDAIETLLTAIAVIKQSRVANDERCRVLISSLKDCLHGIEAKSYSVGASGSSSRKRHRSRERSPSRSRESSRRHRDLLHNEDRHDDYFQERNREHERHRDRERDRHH
UniProt Q99807: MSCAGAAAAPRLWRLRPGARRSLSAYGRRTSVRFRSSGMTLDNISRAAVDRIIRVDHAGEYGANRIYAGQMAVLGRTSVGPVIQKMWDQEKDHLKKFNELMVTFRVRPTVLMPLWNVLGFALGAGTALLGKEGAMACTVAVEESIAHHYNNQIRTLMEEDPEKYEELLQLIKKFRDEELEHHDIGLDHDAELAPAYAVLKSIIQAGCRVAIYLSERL
UniProt Q5TZA2: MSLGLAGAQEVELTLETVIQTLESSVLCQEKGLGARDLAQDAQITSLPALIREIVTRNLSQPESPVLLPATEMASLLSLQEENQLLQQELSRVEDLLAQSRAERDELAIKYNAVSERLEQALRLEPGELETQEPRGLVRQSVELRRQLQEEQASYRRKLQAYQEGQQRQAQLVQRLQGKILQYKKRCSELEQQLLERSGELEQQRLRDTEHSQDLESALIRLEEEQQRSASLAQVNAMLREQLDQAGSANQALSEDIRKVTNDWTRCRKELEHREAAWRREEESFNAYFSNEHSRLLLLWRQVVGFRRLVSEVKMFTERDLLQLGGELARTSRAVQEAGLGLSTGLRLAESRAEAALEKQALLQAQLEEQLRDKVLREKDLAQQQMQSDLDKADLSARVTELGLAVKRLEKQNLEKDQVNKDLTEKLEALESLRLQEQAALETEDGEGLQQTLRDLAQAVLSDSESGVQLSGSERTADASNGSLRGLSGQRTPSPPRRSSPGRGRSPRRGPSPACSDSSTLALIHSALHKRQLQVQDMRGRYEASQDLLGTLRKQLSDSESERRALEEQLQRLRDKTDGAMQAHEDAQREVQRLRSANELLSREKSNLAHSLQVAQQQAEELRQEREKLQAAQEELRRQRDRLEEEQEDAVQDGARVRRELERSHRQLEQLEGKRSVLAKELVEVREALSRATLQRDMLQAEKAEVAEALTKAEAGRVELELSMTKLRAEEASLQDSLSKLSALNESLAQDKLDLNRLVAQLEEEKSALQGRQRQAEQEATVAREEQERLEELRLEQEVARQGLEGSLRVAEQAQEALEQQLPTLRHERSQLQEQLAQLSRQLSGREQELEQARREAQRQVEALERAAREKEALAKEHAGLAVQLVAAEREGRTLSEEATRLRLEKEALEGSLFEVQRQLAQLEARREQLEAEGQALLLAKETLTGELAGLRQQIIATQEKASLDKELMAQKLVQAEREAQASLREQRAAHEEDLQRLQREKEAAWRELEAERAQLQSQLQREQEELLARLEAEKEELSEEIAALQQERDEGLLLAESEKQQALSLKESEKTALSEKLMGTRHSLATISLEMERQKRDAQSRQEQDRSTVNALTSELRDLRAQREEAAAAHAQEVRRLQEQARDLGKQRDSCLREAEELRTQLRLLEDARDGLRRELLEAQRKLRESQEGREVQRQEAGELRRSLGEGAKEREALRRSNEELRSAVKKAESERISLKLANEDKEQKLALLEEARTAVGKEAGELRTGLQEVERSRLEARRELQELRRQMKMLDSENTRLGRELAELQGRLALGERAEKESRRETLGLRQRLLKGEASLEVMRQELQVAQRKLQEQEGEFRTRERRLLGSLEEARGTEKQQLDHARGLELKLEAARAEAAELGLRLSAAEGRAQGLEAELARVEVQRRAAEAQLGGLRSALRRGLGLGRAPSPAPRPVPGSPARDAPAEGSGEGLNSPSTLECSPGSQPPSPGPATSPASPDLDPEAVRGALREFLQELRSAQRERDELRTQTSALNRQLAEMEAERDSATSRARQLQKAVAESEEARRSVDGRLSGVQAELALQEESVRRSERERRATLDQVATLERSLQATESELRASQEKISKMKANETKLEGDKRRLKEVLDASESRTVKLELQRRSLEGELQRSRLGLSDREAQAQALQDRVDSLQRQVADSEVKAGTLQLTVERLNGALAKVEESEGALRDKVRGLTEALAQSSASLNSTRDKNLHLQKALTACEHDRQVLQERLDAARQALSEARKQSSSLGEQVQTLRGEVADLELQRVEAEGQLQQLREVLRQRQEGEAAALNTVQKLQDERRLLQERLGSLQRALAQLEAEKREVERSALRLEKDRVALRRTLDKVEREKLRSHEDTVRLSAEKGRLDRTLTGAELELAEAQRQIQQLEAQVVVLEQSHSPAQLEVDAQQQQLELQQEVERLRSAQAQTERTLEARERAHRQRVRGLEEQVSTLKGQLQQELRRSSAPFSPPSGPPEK
UniProt Q96HD1: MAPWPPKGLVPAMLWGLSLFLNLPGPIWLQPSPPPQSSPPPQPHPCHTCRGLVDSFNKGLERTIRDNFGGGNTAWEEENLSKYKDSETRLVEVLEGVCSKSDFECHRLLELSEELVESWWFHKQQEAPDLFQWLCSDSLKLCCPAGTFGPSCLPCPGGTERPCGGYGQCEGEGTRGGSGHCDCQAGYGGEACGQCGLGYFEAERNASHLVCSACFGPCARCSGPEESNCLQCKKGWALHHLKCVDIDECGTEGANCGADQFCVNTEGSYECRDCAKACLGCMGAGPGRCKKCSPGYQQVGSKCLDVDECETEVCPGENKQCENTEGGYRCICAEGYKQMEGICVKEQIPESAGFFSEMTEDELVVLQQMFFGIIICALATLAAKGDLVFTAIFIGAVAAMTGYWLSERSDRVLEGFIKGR
UniProt O75534: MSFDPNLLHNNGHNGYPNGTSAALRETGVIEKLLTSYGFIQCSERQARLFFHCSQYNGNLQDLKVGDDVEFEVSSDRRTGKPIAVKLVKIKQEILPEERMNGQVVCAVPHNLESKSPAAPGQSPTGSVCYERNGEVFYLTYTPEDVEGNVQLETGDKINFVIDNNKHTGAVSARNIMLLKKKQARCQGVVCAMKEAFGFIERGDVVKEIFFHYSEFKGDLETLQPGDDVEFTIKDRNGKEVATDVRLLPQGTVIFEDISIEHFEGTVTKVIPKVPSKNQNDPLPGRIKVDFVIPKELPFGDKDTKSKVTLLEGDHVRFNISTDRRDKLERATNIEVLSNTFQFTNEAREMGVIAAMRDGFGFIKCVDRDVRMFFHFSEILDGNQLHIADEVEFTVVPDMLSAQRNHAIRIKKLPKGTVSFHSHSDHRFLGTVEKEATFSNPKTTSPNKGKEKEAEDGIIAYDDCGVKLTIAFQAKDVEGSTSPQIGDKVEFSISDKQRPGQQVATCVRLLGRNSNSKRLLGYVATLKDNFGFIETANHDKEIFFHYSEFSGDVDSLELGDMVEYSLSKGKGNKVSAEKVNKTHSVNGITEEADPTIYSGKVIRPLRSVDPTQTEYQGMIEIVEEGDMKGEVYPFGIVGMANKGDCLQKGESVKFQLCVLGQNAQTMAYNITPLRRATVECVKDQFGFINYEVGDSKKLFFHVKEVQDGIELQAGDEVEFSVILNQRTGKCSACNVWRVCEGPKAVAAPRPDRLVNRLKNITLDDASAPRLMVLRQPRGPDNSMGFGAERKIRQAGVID
UniProt P10606, whole entry, looked up: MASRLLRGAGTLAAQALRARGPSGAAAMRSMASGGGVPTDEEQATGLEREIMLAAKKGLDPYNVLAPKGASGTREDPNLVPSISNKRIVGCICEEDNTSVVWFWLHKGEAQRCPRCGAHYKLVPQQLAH
UniProt Q9H3G5: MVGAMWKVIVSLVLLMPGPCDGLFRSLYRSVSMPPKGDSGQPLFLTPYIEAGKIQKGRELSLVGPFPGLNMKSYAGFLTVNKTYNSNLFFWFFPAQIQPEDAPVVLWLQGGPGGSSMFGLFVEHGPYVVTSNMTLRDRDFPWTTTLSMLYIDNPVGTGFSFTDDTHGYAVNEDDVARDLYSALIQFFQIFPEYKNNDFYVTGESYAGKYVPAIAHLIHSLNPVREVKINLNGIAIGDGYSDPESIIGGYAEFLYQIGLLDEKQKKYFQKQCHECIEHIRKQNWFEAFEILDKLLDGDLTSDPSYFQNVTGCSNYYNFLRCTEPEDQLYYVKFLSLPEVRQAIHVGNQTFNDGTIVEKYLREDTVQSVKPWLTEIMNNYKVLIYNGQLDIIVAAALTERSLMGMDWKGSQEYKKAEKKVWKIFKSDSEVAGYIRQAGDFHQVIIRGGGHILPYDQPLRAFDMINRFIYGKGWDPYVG

Assays:
Assay in all cases: log2 fold change, soluble protein after heating vs DMSO (PISA); higher = thermal stabilisation; K562 cells, 10 uM, 30 min; active = over 0.2 and 3.5 SD of the protein, either way, in both replicates (recomputed)
erlotinib = compound: C#Cc1cccc(Nc2ncnc3cc(OCCOC)c(OCCOC)cc23)c1 [erlotinib]
Summary of the method: (§1)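 K562 cells at 2×10^6 cells/mL were treated for 30 min with 10 μM compound, and aliquots were heated for 3 min over 48°C-58°C before pooling. Extraction used PBS with 0.5% NP-40 at 4°C, and soluble protein was the supernatant after 21,000xg for 90 min, measured by TMTpro 16plex LC-MS/MS with channel sums equalised. Thermal stability values, relative to control samples and from duplicates, are log2 fold changes.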

[1] = compound: C/C(=N\NC(=O)C1=CC(=CC=C1)S(=O)(=O)N2CCOCC2)/C3=C(C=CC(=C3)Cl)O
Summary of the method: as §1

[2] = compound: C1=CC(=C(C=C1Cl)C2=NC3=NC=CN=C3C(=N2)NC4=CC=NC=C4)F
Summary of the method: as §1

[3] = compound: C1=CC(=CC=C1C2=NC3=C(N2)C=C(C=C3)C(=O)N)OC4=CC=C(C=C4)Cl
Summary of the method: as §1

[4] = compound: C1=CC2=C(C=CC(=C2)/C=C\3/C(=O)NC(=NCC4=CC=CS4)S3)N=C1
Summary of the method: as §1

[5] = compound: C1=CC2=NC=CN=C2C=C1/C=C/3\C(=O)NC(=O)S3
Summary of the method: as §1

[6] = compound: C1=CC=C(C=C1)C2=NC(=C(N2)C3=CC=NC=C3)C4=CC(=C(C=C4)Cl)O
Summary of the method: as §1

[7] = compound: C1=CC=C2C(=C1)C3=NNC4=CC=CC(=C43)C2=O
Summary of the method: as §1

[8] = compound: C1CCN(C1)C(=O)NC2=CC=CC(=C2)NC3=NC=C(C(=N3)NCCC4=CN=CN4)Br
Summary of the method: as §1

[9] = compound: C1CN(CCC1(CC2=CC=C(C=C2)Cl)N)C3=NC=NC4=C3C=CN4
Summary of the method: as §1

IRAK-1-4 Inhibitor I = compound: C1COCCN1CCN2C3=CC=CC=C3N=C2NC(=O)C4=CC(=CC=C4)[N+](=O)[O-] [IRAK-1-4 Inhibitor I]
Summary of the method: as §1

ibrutinib = compound: C=CC(=O)N1CCC[C@@H](n2nc(-c3ccc(Oc4ccccc4)cc3)c3c(N)ncnc32)C1 [ibrutinib]
Summary of the method: as §1

[10] = compound: CC(=O)c1cnc2ccc(-c3cc(Cl)c(O)c(Cl)c3)nc2c1N[C@H]1CC[C@H](CN(C)C)CC1
Summary of the method: as §1

ralimetinib = compound: CC(C)(C)Cn1c(N)nc2ccc(-c3[nH]c(C(C)(C)C)nc3-c3ccc(F)cc3)nc21 [ralimetinib]
Summary of the method: as §1

[11] = compound: CC(C)(O)CC(=O)NCCn1ccc2ncnc(Nc3ccc(Oc4cccc(C(F)(F)F)c4)c(Cl)c3)c21
Summary of the method: as §1

[12] = compound: CC(C)C1=C2N=C(C=C(N2N=C1)NCC3=CC=CC=C3)NCCCCCCN
Summary of the method: as §1

[13] = compound: CC(C)C[C@@H](C=O)NC(=O)[C@H](CC(C)C)NC(=O)[C@H](CC(C)C)NC(=O)OCc1ccccc1
Summary of the method: as §1

pinometostat = compound: CC(C)N(C[C@H]1O[C@@H](n2cnc3c(N)ncnc32)[C@H](O)[C@@H]1O)[C@H]1C[C@@H](CCc2nc3cc(C(C)(C)C)ccc3[nH]2)C1 [pinometostat]
Summary of the method: as §1

[14] = compound: CC1=C(C(CC(=O)N1)C2=CC=C(C=C2)C(F)(F)F)C(=O)NC3=C(C=C4C(=C3)C=NN4)F
Summary of the method: as §1

[15] = compound: CC1=C(C2=C(C=C1)C(=O)C3=CC=CC=C3N2CCCN)C
Summary of the method: as §1

Measured: log2 fold change

CPNE3 (UniProt O75131)
inactive: erlotinib -0.025 | [1] 0.011 | [2] 0.073 | [3] 0 | [4] -0.021 | [5] -0.007 | [6] 0.03 | [7] -0.05 | [8] 0.029 | [9] 0.227 | IRAK-1-4 Inhibitor I 0.037 | ibrutinib 0.009 | [10] 0.023 | ralimetinib 0.004 | [11] 0.004 | [12] 0.075 | [13] -0.039 | pinometostat -0.051 | [14] 0.006 | [15] -0.048

COPG1 (UniProt Q9Y678)
inactive: erlotinib -0.042 | [1] 0.047 | [2] 0.018 | [3] 0 | [4] 0 | [5] 0.017 | [6] 0.022 | [7] 0.03 | [8] 0.002 | [9] 0.006 | IRAK-1-4 Inhibitor I 0 | ibrutinib -0.017 | [10] 0.022 | ralimetinib 0.003 | [11] -0.035 | [12] 0.072 | [13] -0.01 | pinometostat -0.014 | [14] 0.008 | [15] 0.019

CRYZ (UniProt Q08257)
inactive: erlotinib 0.013 | [1] 0.008 | [2] 0.089 | [3] -0.028 | [4] -0.001 | [5] -0.016 | [6] -0.025 | [7] 0.008 | [8] 0.027 | [9] 0.028 | IRAK-1-4 Inhibitor I 0.028 | ibrutinib 0.009 | [10] -0.001 | ralimetinib -0.056 | [11] -0.036 | [12] 0.047 | [13] -0.01 | pinometostat -0.05 | [14] -0.012 | [15] 0.043

CSNK1D (UniProt P48730)
active: [10] 0.768
inactive: erlotinib 0.033 | [1] -0.02 | [2] -0.143 | [3] 0.011 | [4] -0.05 | [5] 0.051 | [6] 0.165 | [7] 0.258 | [8] -0.035 | [9] -0.086 | IRAK-1-4 Inhibitor I -0.041 | ibrutinib 0.002 | ralimetinib 0.216 | [11] -0.001 | [12] -0.138 | [13] 0.077 | pinometostat 0.13 | [15] 0.063

COX20 isoform 2 (UniProt Q5RI15)
inactive: erlotinib 0.037 | [1] 0.013 | [2] 0.072 | [3] 0.008 | [4] 0.057 | [5] 0.016 | [6] -0.092 | [7] -0.061 | [8] 0 | [9] 0.03 | IRAK-1-4 Inhibitor I -0.019 | ibrutinib 0.043 | [10] -0.022 | ralimetinib -0.055 | [11] 0.016 | [12] 0.006 | [13] 0 | pinometostat -0.018 | [15] 0.019

2 neighbouring entries out of the list so far:
CSNK1D (UniProt P48730)
active: [10] 0.768
inactive: erlotinib 0.033 | [1] -0.02 | [2] -0.143 | [3] 0.011 | [4] -0.05 | [5] 0.051 | [6] 0.165 | [7] 0.258 | [8] -0.035 | [9] -0.086 | IRAK-1-4 Inhibitor I -0.041 | ibrutinib 0.002 | ralimetinib 0.216 | [11] -0.001 | [12] -0.138 | [13] 0.077 | pinometostat 0.13 | [15] 0.063

COX20 isoform 2 (UniProt Q5RI15)
inactive: erlotinib 0.037 | [1] 0.013 | [2] 0.072 | [3] 0.008 | [4] 0.057 | [5] 0.016 | [6] -0.092 | [7] -0.061 | [8] 0 | [9] 0.03 | IRAK-1-4 Inhibitor I -0.019 | ibrutinib 0.043 | [10] -0.022 | ralimetinib -0.055 | [11] 0.016 | [12] 0.006 | [13] 0 | pinometostat -0.018 | [15] 0.019

Later entries:

CPSF7 isoform 3 (UniProt Q8N684)
active: [10] -0.242 | [15] 0.236
inactive: erlotinib -0.035 | [1] 0.054 | [2] -0.015 | [3] 0.041 | [4] -0.001 | [5] 0.005 | [6] 0.01 | [7] -0.005 | [8] -0.035 | [9] -0.016 | IRAK-1-4 Inhibitor I -0.037 | ibrutinib 0 | ralimetinib 0.003 | [11] -0.002 | [12] 0.02 | [13] -0.045 | pinometostat -0.028

COPS4 (UniProt Q9BT78)
inactive: erlotinib -0.002 | [1] 0.061 | [2] 0.13 | [3] -0.004 | [4] 0.036 | [5] -0.006 | [6] 0.054 | [7] 0.024 | [8] -0.009 | [9] -0.002 | IRAK-1-4 Inhibitor I 0.015 | ibrutinib 0.043 | [10] 0.01 | ralimetinib -0.004 | [11] -0.014 | [12] 0.009 | [13] -0.008 | pinometostat -0.048 | [15] 0.028

COQ7 (UniProt Q99807)
inactive: erlotinib 0.082 | [1] -0.014 | [2] 0.075 | [3] 0.023 | [4] -0.005 | [5] 0.068 | [6] -0.024 | [7] -0.009 | [8] 0.02 | [9] 0.052 | IRAK-1-4 Inhibitor I 0.08 | ibrutinib 0.021 | [10] -0.064 | ralimetinib -0.03 | [11] 0.01 | [12] -0.034 | [13] 0 | pinometostat -0.016 | [15] -0.035

CROCC (UniProt Q5TZA2)
inactive: erlotinib 0.07 | [1] -0.111 | [2] 0.08 | [3] -0.068 | [4] 0.244 | [5] 0.003 | [6] -0.028 | [7] 0.097 | [8] 0.028 | [9] -0.03 | IRAK-1-4 Inhibitor I 0.008 | ibrutinib -0.021 | [10] -0.089 | ralimetinib -0.037 | [11] 0.048 | [12] -0.053 | [13] 0.035 | pinometostat -0.107 | [14] -0.032 | [15] 0.005

CRELD1 isoform 2 (UniProt Q96HD1)
inactive: erlotinib -0.012 | [1] -0.034 | [2] -0.024 | [3] -0.048 | [4] 0.276 | [5] 0.007 | [6] -0.095 | [7] -0.002 | [8] 0.265 | [9] -0.027 | IRAK-1-4 Inhibitor I -0.174 | ibrutinib -0.205 | [10] -0.066 | ralimetinib -0.275 | [11] 0.074 | [12] 0.083 | [13] 0.299 | pinometostat 0.058 | [14] -0.103 | [15] 0.015

CPSF1 (UniProt Q10570)
inactive: erlotinib -0.004 | [1] -0.057 | [2] -0.108 | [3] 0.039 | [4] -0.012 | [5] 0.02 | [6] -0.062 | [7] -0.045 | [8] 0.041 | [9] -0.037 | IRAK-1-4 Inhibitor I -0.006 | ibrutinib -0.007 | [10] 0.064 | ralimetinib 0 | [11] 0.036 | [12] -0.009 | [13] 0.075 | pinometostat 0.142 | [15] -0.093

COPS5 (UniProt Q92905)
inactive: erlotinib -0.005 | [1] 0.04 | [2] 0.045 | [3] 0.011 | [4] -0.026 | [5] 0.032 | [6] 0.052 | [7] 0.002 | [8] -0.007 | [9] 0.031 | IRAK-1-4 Inhibitor I 0.036 | ibrutinib -0.021 | [10] 0.007 | ralimetinib -0.043 | [11] -0.089 | [12] 0.024 | [13] -0.041 | pinometostat -0.036 | [14] -0.022 | [15] 0.002

CSDE1 isoform 4 (UniProt O75534)
inactive: erlotinib 0.021 | [1] 0.087 | [2] -0.244 | [3] -0.034 | [4] 0.038 | [5] -0.009 | [6] -0.055 | [7] 0.023 | [8] -0.015 | [9] -0.168 | IRAK-1-4 Inhibitor I -0.142 | ibrutinib -0.039 | [10] 0.004 | ralimetinib 0.184 | [11] 0.025 | [12] -0.313 | [13] 0.156 | pinometostat 0.323 | [14] 0.007 | [15] -0.06

COX5B (UniProt P10606)
inactive: erlotinib -0.068 | [1] 0.062 | [2] 0.16 | [3] -0.041 | [4] 0.032 | [5] 0.03 | [6] 0.114 | [7] -0.023 | [8] -0.067 | [9] -0.003 | IRAK-1-4 Inhibitor I 0.008 | ibrutinib -0.012 | [10] -0.079 | ralimetinib 0 | [11] 0.106 | [13] -0.082 | pinometostat -0.071 | [15] 0.204
active: [12] 0.428

CPVL (UniProt Q9H3G5)
inactive: erlotinib 0.355 | [1] -0.101 | [2] 0.057 | [3] -0.128 | [4] -0.011 | [5] 0.106 | [6] -0.118 | [7] 0.045 | [8] 0.114 | [9] 0.072 | IRAK-1-4 Inhibitor I 0.055 | ibrutinib -0.06 | [10] 0.058 | ralimetinib -0.05 | [11] -0.078 | [12] -0.043 | [13] 0.078 | pinometostat -0.029 | [14] 0.041 | [15] 0.075
